Reference: PubChem BioAssay AID1259424 (University of Nebraska Medical Center, 2018)

Test: 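Rank knockdowns across the genome by resemblance to the KSR1 depletion profile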 (primary screen)
Cells: human HCT116 colon cancer cells
Reagent: siRNA pool against human genes, 50 nM
Measured: 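Six signature mRNAs by branched-DNA multiplex assay, scaled to two housekeeping genes and non-targeting median, log2; matched to mean KSR1 knockdown profile by Pearson correlation and euclidean distance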
Scale: mean correlation with KSR1 profile: higher = expression change more like KSR1 knockdown
Shown is one part, drawn at random, of about 14,000 deposited reagents. 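Higher correlation or smaller distance means closer resemblance to KSR1 loss; control wells, including KSR1 knockdowns, recur on many plates.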 Not all columns of the deposit are shown. The record does not give: the time to read-out.

Which result is listed for RHBG?
mean correlation with KSR1 profile: -0.0367

With FAM167A, how do the results read?
mean correlation with KSR1 profile: 0.781

With RAB24, how do the results read?
mean correlation with KSR1 profile: 0.204

With PPA2, what was measured?
mean correlation with KSR1 profile: -0.335

With CCNC, how do the results read?
mean correlation with KSR1 profile: -0.00763

A stretch of the results above, for reference:
RHBG: mean correlation with KSR1 profile = -0.0367
FAM167A: mean correlation with KSR1 profile = 0.781

Further results follow:
What is on record for BSND?
mean correlation with KSR1 profile: 0.0091

What is on record for STX1A?
mean correlation with KSR1 profile: -0.531

What is on record for ELOVL4?
mean correlation with KSR1 profile: -0.433

How did the screen score LARP7?
mean correlation with KSR1 profile: -0.71

How did the screen score CINP?
mean correlation with KSR1 profile: 0.127

With VPS28, how do the results read?
mean correlation with KSR1 profile: -0.616

What did the screen give for COL5A3?
mean correlation with KSR1 profile: -0.66
